The target of experiment [1] is T1, Mus81-6XHis (full-length Mus81 subunit) (S. cerevisiae) (UniProt Q04149).
T1 sequence: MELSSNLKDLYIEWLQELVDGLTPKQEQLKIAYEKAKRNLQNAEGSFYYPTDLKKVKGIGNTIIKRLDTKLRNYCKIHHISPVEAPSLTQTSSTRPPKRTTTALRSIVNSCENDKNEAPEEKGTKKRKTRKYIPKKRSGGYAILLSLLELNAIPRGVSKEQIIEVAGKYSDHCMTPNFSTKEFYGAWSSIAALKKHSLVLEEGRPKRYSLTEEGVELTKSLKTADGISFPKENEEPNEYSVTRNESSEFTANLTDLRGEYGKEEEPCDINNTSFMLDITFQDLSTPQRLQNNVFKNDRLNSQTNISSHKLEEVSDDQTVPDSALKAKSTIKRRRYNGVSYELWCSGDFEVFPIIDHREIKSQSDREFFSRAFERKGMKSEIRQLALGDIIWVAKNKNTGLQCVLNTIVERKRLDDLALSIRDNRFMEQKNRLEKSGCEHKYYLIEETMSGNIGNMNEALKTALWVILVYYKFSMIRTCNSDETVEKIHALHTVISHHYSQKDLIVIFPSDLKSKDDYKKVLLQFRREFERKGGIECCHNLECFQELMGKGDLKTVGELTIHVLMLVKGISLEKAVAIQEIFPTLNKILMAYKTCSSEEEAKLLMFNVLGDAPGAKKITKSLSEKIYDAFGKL
Put plainly: co-expression and yield of the complex; truncated Mms4 co-expressed with Mus81 in E. coli; data not shown.

Experiment [2] addresses T2, Mus81 of the wild-type Mus81–Mms4 complex immunoprecipitated from cells (S. cerevisiae) (UniProt Q04149).
T2 sequence: T1 sequence
Nature of the experiment: co-IP; immunoprecipitation with anti-FLAG antibodies from extracts of the same number of cells (Supplementary Figure S3A).

For experiment [3], the target named is T3, Mus81_(Δ120N) of the Mus81_(Δ120N)–Mms4 complex immunoprecipitated from cells (S. cerevisiae) (UniProt Q04149).
T3 sequence: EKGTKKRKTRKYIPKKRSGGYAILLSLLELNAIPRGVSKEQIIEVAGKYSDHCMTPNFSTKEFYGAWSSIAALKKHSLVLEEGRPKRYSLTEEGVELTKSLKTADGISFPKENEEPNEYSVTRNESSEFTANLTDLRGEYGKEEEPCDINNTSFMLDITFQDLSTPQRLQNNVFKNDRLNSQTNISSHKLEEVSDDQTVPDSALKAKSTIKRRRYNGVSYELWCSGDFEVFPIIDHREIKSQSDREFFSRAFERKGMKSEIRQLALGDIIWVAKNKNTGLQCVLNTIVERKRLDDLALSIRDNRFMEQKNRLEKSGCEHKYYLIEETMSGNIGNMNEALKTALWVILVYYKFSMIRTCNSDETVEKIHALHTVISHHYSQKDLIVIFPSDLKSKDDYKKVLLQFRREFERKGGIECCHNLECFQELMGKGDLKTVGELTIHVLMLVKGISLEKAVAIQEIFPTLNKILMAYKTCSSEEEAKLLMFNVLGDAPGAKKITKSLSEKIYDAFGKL
The experiment is described as above.

Experiment [4] has as its target T4, Mus81_(Δ21–26) of Mus81_(Δ21–26)–Mms4_(Δ40N) (S. cerevisiae) (UniProt Q04149).
T4 sequence: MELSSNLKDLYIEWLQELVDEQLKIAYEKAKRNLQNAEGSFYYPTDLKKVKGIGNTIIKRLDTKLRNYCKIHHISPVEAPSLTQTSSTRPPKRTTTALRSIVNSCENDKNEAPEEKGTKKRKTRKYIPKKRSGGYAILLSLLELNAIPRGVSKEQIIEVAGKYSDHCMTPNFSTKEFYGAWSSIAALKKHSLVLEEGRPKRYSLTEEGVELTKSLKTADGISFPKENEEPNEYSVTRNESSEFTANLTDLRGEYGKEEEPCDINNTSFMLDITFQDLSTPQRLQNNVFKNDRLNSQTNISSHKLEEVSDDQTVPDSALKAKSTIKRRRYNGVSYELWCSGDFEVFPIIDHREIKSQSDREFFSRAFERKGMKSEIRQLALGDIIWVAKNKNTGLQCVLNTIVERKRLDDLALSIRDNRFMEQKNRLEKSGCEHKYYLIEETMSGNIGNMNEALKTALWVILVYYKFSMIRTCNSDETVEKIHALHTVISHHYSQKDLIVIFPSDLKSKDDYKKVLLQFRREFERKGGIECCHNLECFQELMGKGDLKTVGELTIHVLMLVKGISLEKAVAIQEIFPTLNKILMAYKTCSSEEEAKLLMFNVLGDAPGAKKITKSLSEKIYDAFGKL
Put plainly: co-purification; Mus81 (or derivative) and Mms4 (or Mms4_(Δ40N)) co-expressed in E. coli; phosphocellulose, Ni2+-NTA, glycerol gradient sedimentation (500-mM NaCl); SDS-PAGE, Coomassie blue.

For experiment [5], the target named is T5, Mus81_(Δ120N) (the mutant Mus81 subunit devoid of the N-terminal 120 aa residues) (S. cerevisiae) (UniProt Q04149).
T5 sequence: T3 sequence
The description is as above.

The target of experiment [6] is T6, Mus81_(Δ21–22) of Mus81_(Δ21–22)–Mms4_(Δ40N) (S. cerevisiae) (UniProt Q04149).
T6 sequence: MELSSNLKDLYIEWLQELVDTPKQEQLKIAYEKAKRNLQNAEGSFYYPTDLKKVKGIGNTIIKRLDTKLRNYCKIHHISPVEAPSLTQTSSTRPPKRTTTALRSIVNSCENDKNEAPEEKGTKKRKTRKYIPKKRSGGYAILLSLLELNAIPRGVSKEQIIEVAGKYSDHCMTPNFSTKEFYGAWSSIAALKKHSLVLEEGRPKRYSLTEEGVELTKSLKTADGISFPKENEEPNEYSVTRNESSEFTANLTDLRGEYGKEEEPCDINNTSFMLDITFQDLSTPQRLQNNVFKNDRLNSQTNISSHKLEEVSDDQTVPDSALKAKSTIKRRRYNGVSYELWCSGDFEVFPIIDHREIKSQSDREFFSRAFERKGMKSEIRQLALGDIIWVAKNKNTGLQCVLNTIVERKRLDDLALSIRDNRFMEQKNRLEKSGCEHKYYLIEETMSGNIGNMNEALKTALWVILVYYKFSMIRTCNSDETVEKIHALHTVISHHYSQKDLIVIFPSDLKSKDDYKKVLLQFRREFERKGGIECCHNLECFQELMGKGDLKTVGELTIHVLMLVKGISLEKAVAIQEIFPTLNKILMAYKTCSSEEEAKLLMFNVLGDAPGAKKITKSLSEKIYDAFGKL
The description is as above.

The target in experiment [7] is T7, Mus81_(Δ21–24) of Mus81_(Δ21–24)–Mms4_(Δ40N) (S. cerevisiae) (UniProt Q04149).
T7 sequence: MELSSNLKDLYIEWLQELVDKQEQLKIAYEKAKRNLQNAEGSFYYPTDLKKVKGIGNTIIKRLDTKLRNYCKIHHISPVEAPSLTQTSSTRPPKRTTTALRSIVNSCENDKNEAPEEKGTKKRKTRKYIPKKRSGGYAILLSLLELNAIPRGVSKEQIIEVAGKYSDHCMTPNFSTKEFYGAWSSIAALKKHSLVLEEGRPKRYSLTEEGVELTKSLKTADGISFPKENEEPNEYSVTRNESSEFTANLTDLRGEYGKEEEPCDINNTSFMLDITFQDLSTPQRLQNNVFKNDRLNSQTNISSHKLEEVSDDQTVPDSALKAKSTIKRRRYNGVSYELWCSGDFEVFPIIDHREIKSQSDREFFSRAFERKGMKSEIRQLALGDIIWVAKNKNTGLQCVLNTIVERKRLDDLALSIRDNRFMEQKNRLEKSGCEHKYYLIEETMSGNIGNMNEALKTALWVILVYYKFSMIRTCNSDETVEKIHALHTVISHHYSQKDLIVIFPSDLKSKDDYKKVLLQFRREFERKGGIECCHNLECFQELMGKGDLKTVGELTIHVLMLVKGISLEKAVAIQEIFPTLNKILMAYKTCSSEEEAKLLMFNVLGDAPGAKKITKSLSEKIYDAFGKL
The description is as above.

The target of experiment [8] is T1, Mus81-6XHis (full-length Mus81 subunit) (S. cerevisiae). Described as above.

Consider three molecules from article PMC4330386 (Nucleic Acids Research, 2015).

No constants are given. Whether binding was seen depends on the method and setting. For some assays here: In cells and extracts the contact can be indirect. Some entries that bind do so weakly or less than the wild type. For some assays here: Tags and fused reporters may be left off the sequences shown.

B1: Mms4_(Δ80N) (domain or fragment, UniProt P38257 81-691)
chain: FFQDISISKLDDFSTTVNSIIDSSLRNENNAKGNAKKLLDDLISDEWSADLESSGKKHNKSQYNLRDIAEKWGVQSLKNPEPIAVDCEYKTQGIGKTNSDISDSPKSQIGAADILFDFPLSPVKHENPTEEKHNSIANENSSPDNSLKPAGKQNHGEDGTSMAKRVYNKGEDEQEHLPKGKKRTIALSRTLINSTKLPDTVELNLSKFLDSSDSITTDVLSTPAKGSNIVRTGSQPIFSNANCFQEAKRSKTLTAEDPKCTKNTAREVSQLENYIAYGQYYTREDSKNKIRHLLKENKNAFKRVNQIYRDNIKARSQMIIEFSPSLLQLFKKGDSDLQQQLAPAVVQSSYNDSMPLLRFLRKCDSIYDFSNDFYYPCDPKIVEENVLILYYDAQEFFEQYTSQKKELYRKIRFFSKNGKHVILILSDINKLKRAIFQLENEKYKARVEQRLSGTEEALRPRSKKSSQVGKLGIKKFDLEQRLRFIDREWHVKIHTVNSHMEFINSLPNLVSLIGKQRMDPAIRYMKYAHLNVKSAQDSTETLKKTFHQIGRMPEMKANNVVSLYPSFQSLLEDIEKGRLQSDNEGKYLMTEAVEKRLYKLFTCTDPNDTIE
Take B1: the binding entry in experiment [1] is on record as “binds”.

B2: Mms4 of the complexes immunoprecipitated from cells (protein, UniProt P38257 1-691)
chain: MSQIVDFVEDKDSRNDASIQIIDGPSNVEIIALSESMDQDECKRAHVSSAEMIPSSPQRKSVSNDVENVDLNKSIELSAPFFQDISISKLDDFSTTVNSIIDSSLRNENNAKGNAKKLLDDLISDEWSADLESSGKKHNKSQYNLRDIAEKWGVQSLKNPEPIAVDCEYKTQGIGKTNSDISDSPKSQIGAADILFDFPLSPVKHENPTEEKHNSIANENSSPDNSLKPAGKQNHGEDGTSMAKRVYNKGEDEQEHLPKGKKRTIALSRTLINSTKLPDTVELNLSKFLDSSDSITTDVLSTPAKGSNIVRTGSQPIFSNANCFQEAKRSKTLTAEDPKCTKNTAREVSQLENYIAYGQYYTREDSKNKIRHLLKENKNAFKRVNQIYRDNIKARSQMIIEFSPSLLQLFKKGDSDLQQQLAPAVVQSSYNDSMPLLRFLRKCDSIYDFSNDFYYPCDPKIVEENVLILYYDAQEFFEQYTSQKKELYRKIRFFSKNGKHVILILSDINKLKRAIFQLENEKYKARVEQRLSGTEEALRPRSKKSSQVGKLGIKKFDLEQRLRFIDREWHVKIHTVNSHMEFINSLPNLVSLIGKQRMDPAIRYMKYAHLNVKSAQDSTETLKKTFHQIGRMPEMKANNVVSLYPSFQSLLEDIEKGRLQSDNEGKYLMTEAVEKRLYKLFTCTDPNDTIE
As to B2, the binding entry in experiment [2] and in experiment [3] was “binds” in each case.

B3: Mms4_(Δ40N) (domain or fragment, budding yeast, UniProt P38257 41-691, looked up)
chain: ECKRAHVSSAEMIPSSPQRKSVSNDVENVDLNKSIELSAPFFQDISISKLDDFSTTVNSIIDSSLRNENNAKGNAKKLLDDLISDEWSADLESSGKKHNKSQYNLRDIAEKWGVQSLKNPEPIAVDCEYKTQGIGKTNSDISDSPKSQIGAADILFDFPLSPVKHENPTEEKHNSIANENSSPDNSLKPAGKQNHGEDGTSMAKRVYNKGEDEQEHLPKGKKRTIALSRTLINSTKLPDTVELNLSKFLDSSDSITTDVLSTPAKGSNIVRTGSQPIFSNANCFQEAKRSKTLTAEDPKCTKNTAREVSQLENYIAYGQYYTREDSKNKIRHLLKENKNAFKRVNQIYRDNIKARSQMIIEFSPSLLQLFKKGDSDLQQQLAPAVVQSSYNDSMPLLRFLRKCDSIYDFSNDFYYPCDPKIVEENVLILYYDAQEFFEQYTSQKKELYRKIRFFSKNGKHVILILSDINKLKRAIFQLENEKYKARVEQRLSGTEEALRPRSKKSSQVGKLGIKKFDLEQRLRFIDREWHVKIHTVNSHMEFINSLPNLVSLIGKQRMDPAIRYMKYAHLNVKSAQDSTETLKKTFHQIGRMPEMKANNVVSLYPSFQSLLEDIEKGRLQSDNEGKYLMTEAVEKRLYKLFTCTDPNDTIE
On to B3, for which the binding entry in experiment [4], in experiment [5], in experiment [6], in experiment [7] and in experiment [8] was “binds” each time.
